Data published in paper PMC3348923.
These are yes or no findings as the source states them, for the method shown. In cells and extracts the contact can be indirect. Binding calls can cover weak binding; strength is not graded here.

Sequences of proteins named here, by UniProt entry; tags and fusion partners are left off. A change or cut given only in a name is not applied to a line headed by its entry.
UniProt Q86TM6: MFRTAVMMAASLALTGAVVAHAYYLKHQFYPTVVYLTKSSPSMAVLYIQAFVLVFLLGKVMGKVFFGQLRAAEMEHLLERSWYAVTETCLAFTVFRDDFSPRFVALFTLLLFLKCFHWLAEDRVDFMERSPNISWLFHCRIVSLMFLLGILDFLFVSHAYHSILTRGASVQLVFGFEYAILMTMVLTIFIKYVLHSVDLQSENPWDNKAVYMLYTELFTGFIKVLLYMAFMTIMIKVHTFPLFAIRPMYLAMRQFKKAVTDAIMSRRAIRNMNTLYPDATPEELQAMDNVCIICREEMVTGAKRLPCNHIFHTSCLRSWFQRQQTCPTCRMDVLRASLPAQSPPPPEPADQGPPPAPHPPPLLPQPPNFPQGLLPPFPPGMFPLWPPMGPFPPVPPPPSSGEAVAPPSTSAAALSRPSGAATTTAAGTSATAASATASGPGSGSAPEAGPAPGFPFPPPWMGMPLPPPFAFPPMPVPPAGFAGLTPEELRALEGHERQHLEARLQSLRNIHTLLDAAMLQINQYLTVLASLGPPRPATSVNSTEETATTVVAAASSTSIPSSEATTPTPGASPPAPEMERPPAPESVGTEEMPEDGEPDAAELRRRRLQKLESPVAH
UniProt Q9UHP3: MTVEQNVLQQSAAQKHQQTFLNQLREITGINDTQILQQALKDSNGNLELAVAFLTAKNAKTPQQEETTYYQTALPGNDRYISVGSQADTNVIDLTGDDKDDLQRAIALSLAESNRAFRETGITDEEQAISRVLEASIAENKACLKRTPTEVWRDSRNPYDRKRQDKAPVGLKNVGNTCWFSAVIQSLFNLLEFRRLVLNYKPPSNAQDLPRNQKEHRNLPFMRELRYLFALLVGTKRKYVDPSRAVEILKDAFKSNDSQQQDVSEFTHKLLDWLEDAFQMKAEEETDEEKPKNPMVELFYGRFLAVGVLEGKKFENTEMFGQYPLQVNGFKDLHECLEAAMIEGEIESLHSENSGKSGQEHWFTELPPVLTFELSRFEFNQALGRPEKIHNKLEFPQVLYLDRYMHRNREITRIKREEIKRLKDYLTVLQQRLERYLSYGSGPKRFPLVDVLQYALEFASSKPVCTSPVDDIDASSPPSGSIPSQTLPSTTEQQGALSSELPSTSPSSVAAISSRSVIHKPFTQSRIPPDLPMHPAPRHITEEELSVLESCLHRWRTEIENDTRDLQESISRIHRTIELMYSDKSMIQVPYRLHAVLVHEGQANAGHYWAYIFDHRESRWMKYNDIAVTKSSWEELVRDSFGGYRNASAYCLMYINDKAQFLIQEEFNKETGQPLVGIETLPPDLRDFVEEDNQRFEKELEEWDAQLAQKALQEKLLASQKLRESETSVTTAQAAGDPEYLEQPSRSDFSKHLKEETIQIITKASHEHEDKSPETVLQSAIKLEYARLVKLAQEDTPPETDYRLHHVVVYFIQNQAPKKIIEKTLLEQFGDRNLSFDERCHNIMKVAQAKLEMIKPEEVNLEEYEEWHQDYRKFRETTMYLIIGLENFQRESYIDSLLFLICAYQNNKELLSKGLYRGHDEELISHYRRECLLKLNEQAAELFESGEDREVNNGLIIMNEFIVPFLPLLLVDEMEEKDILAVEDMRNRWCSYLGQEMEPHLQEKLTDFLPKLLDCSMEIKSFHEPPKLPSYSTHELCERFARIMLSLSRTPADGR

Biological target: V5-HRD1 (UniProt Q86TM6)
Assay: co-IP; HEK-293 cells transfected, harvested 48 h later; lysed in NETN buffer (50 mM TRIS pH 7.5, 150 mM NaCl, 0.5% NP40) with protease inhibitors; tagged protein precipitated with bead-bound anti-tag antibodies, washed 3X, eluted with 2% SDS; western blot

With “USP25 ΔUBA (from UniProt Q9UHP3) (enzyme)” the binding was “binds”.

With “USP25 ΔUIM (from UniProt Q9UHP3) (enzyme)” the binding was “binds”.
